Test results reported in publication PMC9131266.
Results are given in words; binding and its absence hold for the method and conditions named. In cells and extracts the contact can be indirect. Some entries that bind do so weakly or less than the wild type.

Protein sequences, listed by entry. Tags and fused reporters are not part of them.
UniProt Q9Z0J4: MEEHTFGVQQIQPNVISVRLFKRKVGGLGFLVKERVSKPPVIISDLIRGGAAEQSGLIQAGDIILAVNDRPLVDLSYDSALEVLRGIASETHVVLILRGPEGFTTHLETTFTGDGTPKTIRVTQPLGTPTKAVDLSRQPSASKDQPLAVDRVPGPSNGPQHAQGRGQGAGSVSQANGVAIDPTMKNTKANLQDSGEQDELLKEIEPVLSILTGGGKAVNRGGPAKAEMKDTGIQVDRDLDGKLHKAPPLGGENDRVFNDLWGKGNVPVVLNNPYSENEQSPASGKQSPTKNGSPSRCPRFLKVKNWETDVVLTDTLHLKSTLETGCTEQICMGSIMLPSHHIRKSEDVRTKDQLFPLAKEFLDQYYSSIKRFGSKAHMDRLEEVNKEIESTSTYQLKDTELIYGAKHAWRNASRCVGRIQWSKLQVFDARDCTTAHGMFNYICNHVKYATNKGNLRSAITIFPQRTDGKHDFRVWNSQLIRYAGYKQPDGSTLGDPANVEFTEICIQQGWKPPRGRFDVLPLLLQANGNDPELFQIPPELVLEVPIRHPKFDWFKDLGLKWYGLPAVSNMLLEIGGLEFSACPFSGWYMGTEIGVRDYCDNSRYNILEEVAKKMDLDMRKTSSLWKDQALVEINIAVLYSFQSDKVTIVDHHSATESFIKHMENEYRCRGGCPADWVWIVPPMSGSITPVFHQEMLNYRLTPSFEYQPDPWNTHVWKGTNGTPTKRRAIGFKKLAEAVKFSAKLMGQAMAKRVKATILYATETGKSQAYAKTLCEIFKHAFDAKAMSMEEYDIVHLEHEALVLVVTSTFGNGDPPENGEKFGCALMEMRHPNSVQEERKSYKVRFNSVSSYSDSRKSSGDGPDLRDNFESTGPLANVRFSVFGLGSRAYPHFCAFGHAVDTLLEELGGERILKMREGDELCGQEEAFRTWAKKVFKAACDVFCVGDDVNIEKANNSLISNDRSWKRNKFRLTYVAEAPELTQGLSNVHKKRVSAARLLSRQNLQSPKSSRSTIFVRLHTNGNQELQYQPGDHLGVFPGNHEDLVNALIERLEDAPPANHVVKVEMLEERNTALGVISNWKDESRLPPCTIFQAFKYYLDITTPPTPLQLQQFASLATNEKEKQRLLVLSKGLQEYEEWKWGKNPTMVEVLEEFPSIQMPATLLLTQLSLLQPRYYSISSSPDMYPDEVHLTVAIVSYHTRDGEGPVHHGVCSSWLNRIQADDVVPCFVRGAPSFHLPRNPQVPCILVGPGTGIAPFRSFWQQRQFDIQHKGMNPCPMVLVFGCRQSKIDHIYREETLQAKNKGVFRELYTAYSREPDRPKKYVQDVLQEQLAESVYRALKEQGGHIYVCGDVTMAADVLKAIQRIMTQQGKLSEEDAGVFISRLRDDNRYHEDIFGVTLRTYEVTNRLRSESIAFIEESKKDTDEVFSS
UniProt Q9D3A8: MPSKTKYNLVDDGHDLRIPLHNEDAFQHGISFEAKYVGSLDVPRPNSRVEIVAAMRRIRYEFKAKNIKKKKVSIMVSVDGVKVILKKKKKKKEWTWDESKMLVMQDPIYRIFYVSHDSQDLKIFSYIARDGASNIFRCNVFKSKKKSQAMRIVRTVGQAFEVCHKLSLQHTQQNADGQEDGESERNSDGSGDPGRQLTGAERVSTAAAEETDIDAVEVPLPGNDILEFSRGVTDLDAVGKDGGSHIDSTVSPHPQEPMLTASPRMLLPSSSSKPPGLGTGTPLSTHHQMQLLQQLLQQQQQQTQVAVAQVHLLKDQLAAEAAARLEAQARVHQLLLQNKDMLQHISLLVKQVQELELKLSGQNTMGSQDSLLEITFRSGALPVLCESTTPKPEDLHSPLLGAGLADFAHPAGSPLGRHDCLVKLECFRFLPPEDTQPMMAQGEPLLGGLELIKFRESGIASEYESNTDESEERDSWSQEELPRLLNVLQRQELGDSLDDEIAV

How the values were obtained:
[1] = molecular target: neuronal nitric oxide synthase (mouse (endogenous in hippocampal DG and cultured neurons of ICR mice)) (UniProt Q9Z0J4); test: co-IP; hippocampal DG of mice homogenised in lysis buffer; anti-nNOS antibody on protein G-Sepharose beads, overnight; washed with 0.05 M HEPES pH 7.1, 0.15% Triton X-100, 0.15 M NaCl; immunoblot for CAPON, shown as the ratio of CAPON to nNOS; mice treated with vehicle, CMS, CORT, fluoxetine, 5-HT, 8-OH-DPAT or NAN-190
[2] = molecular target: neuronal nitric oxide synthase (mouse (endogenous in hippocampal DG and cultured neurons of ICR mice)) (UniProt Q9Z0J4); test: proximity ligation; Duolink in situ PLA on fixed primary cultured neurons at 10 DIV with mouse anti-nNOS and rabbit anti-CAPON antibodies; neurons treated with vehicle, CORT, CORT + fluoxetine, 5-HT, 8-OH-DPAT or NAN-190 for 72 h
[3] = molecular target: neuronal nitric oxide synthase (mouse (endogenous in hippocampal DG and cultured neurons of ICR mice)) (UniProt Q9Z0J4); test: co-IP; synaptosome samples from the hippocampal DG of vehicle- and 5-HT-treated mice; immunoblot of the association of nNOS and CAPON

- binding [1]: binds
- binding [2]: binds
- binding [3]: binds
Substance: carboxy-terminal PDZ ligand of nNOS (from UniProt Q9D3A8 1-503)
